{"sequences": {"note": "By UniProt entry, the sequences of proteins in these tests, tags left out. Where a name states a change or a piece, a line headed by the entry shows the natural chain unless it says otherwise.", "UniProt P40692": "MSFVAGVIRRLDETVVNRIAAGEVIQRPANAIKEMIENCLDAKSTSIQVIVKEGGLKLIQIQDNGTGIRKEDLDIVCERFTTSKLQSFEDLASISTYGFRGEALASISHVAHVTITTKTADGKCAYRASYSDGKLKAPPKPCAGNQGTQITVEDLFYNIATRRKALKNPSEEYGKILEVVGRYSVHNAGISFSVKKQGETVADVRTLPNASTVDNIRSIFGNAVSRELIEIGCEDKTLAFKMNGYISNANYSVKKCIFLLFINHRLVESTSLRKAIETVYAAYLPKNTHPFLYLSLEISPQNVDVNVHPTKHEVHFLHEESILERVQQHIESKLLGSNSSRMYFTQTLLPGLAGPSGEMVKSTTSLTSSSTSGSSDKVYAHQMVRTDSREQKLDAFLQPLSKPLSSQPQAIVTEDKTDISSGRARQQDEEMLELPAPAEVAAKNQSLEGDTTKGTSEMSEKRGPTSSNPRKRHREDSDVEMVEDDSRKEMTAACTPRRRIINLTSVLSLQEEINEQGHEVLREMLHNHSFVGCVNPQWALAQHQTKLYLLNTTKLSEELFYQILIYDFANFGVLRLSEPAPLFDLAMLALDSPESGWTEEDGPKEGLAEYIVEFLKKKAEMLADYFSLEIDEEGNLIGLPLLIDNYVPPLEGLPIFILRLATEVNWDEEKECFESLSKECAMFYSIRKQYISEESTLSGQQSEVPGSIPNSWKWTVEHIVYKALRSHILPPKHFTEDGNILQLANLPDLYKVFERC", "UniProt Q9UHC1": "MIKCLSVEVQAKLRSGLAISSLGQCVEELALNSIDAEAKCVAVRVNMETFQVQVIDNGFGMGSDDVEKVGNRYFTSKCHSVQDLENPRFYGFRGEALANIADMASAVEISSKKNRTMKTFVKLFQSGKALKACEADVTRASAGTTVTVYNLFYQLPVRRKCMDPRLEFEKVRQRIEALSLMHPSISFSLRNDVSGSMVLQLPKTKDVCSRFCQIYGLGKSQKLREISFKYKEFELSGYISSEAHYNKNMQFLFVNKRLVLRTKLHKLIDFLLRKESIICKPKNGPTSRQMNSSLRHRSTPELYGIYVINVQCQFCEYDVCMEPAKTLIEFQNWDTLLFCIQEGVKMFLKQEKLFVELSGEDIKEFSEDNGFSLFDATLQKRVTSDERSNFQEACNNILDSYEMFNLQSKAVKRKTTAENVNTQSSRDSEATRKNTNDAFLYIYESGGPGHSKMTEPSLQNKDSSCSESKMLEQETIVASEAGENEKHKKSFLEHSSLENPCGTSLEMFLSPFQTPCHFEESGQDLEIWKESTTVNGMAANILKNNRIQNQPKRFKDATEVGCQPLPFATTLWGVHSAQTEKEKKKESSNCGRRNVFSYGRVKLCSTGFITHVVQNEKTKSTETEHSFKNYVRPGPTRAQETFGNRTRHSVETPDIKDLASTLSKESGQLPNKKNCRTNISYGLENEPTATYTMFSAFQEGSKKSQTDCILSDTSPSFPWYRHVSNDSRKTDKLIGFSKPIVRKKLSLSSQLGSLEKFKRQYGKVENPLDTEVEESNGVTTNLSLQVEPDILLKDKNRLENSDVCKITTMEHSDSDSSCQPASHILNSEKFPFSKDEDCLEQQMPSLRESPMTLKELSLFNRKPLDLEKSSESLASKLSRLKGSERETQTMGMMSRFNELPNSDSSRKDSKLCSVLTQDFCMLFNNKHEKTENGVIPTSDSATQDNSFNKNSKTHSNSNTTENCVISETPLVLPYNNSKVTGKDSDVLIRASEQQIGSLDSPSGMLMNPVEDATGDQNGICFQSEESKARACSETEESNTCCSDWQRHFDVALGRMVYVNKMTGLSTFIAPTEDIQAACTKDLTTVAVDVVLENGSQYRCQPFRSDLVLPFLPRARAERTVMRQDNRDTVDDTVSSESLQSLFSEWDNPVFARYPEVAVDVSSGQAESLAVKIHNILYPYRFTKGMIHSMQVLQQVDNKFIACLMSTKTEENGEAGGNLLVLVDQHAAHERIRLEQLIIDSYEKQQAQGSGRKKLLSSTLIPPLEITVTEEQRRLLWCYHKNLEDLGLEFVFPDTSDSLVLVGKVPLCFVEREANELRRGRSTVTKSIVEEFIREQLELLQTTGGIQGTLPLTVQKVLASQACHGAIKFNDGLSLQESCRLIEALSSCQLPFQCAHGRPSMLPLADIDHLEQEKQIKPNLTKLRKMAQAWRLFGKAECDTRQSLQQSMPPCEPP"}, "source": "paper PMC12559329", "molecular_target": "MutLγ (MLH1-MLH3) heterodimer, human (human) (UniProt P40692+Q9UHC1)", "experiment": "condition: 1 µg of recombinant MBP-FAN1-MIP-MIM in 70 µl; pull-down; 1 µg recombinant MLH1-MLH3 held by anti-MLH1 antibody on protein G magnetic beads; 1 µg MSH2-MSH3, MBP-FAN1 or MBP-FAN1-MIP-MIM added alone, or MSH2-MSH3 for 20 min followed by MBP-FAN1 or MBP-FAN1-MIP-MIM, in 70 µl immunoprecipitation buffer (25 mM Tris-HCl pH 7.5, 3 mM EDTA, 1 mM DTT, 0.2 µg/µl albumin, 70 mM NaCl), 4 °C, 1 h in all; washes with 100 mM NaCl, 0.1% Triton X-100; western blot (anti-MBP, anti-FLAG); both purified", "note": "No constants are given. Whether binding was seen depends on the method and setting."}
{"substance": "MBP-tagged MLH1-binding defective FAN1 MIP-MIM (Y128A, F129A, L155A, L159A) (from UniProt Q9Y2M0 1-1017) (enzyme)", "values": [{"measurement": "binding", "result": "no binding"}]}
